Taken from: PubChem BioAssay AID1259424 (University of Nebraska Medical Center, 2018)

Assay: 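Rank knockdowns across the genome by resemblance to the KSR1 depletion profile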 (primary screen)
Cell system: human HCT116 colon cancer cells
Reagents: siRNA pool against human genes, 50 nM
Measured: 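Log2 levels of six mRNAs (branched-DNA multiplex), adjusted by two reference genes and the non-targeting median, then scored against the average KSR1 knockdown pattern as Pearson r and euclidean distance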
Scale: mean correlation with KSR1 profile and KSR1 correlation: higher = expression change more like KSR1 knockdown; mean distance from KSR1 profile: higher = expression change less like KSR1 knockdown
This is an unselected part of about 14,000 deposited reagents. 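Higher correlation or smaller distance means closer resemblance to KSR1 loss; control wells, including KSR1 knockdowns, recur on many plates.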 Further read-outs or replicates are left out here. Reagent sequences are not shown. The record does not give: the time to read-out.

gene,mean correlation with KSR1 profile,mean distance from KSR1 profile,"KSR1 correlation, replicate 1","KSR1 correlation, replicate 2"
PMM2,0.435,1.37,0.403,0.464
LPCAT3,-0.169,2.21,-0.188,-0.13
SNX13,-0.451,2.1,-0.38,-0.507
ACTN2,0.0439,1.03,0.249,-0.309
RPL26L1,-0.426,2.13,-0.579,-0.314
SCLY,0.362,1.92,0.0805,0.671
L3MBTL3,0.822,2.47,0.719,0.587
LY6G6E,-0.427,2.44,-0.438,-0.359
DLGAP4,-0.738,2.49,-0.593,-0.734
FRAT1,-0.27,2.3,-0.317,-0.608
RNF115,-0.504,2.32,-0.612,-0.566
EIF2AK3,0.244,2.23,0.464,0.267
TRIP4,-0.102,1.46,0.157,-0.255
CD72,-0.041,1.46,0.122,-0.321
IFNA6,-0.0302,1.58,-0.0649,-0.0943
CXCL11,-0.037,1.63,0.212,-0.108
GRTP1,0.415,1.91,0.477,0.507
LYST,-0.132,1.09,-0.0147,-0.4
DDX56,0.432,4.26,0.00375,0.41
RFC1,-0.0714,1.54,-0.282,-0.0935
